# Measured values published in PubChem BioAssay (EPA / NIEHS).
# Amino acid sequences for entries named in this document (tags omitted). A change or cut given only in a name is not applied to a line headed by its entry.
# UniProt O75469: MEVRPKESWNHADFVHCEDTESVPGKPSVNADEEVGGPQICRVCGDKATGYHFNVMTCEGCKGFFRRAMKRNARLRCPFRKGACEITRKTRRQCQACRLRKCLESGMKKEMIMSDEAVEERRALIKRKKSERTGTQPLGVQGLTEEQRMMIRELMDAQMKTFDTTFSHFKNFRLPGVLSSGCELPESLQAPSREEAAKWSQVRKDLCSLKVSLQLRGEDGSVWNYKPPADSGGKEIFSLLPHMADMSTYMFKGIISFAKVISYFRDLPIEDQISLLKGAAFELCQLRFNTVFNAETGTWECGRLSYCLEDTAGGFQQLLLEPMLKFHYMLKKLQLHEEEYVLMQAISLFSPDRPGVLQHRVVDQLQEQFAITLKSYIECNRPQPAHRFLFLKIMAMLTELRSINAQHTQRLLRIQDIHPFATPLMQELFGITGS
# UniProt P04637, whole entry, looked up: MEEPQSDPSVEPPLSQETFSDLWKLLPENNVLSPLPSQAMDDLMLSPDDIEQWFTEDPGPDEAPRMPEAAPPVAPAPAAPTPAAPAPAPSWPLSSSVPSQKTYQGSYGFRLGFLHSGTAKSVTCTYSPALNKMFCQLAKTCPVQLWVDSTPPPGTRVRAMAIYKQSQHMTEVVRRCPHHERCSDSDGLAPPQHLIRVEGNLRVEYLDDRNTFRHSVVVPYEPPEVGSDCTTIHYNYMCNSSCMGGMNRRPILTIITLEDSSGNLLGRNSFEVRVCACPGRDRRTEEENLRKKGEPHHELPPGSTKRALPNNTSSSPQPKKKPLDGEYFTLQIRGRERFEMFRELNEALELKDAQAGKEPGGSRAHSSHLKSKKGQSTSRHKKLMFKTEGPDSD
# UniProt P19793: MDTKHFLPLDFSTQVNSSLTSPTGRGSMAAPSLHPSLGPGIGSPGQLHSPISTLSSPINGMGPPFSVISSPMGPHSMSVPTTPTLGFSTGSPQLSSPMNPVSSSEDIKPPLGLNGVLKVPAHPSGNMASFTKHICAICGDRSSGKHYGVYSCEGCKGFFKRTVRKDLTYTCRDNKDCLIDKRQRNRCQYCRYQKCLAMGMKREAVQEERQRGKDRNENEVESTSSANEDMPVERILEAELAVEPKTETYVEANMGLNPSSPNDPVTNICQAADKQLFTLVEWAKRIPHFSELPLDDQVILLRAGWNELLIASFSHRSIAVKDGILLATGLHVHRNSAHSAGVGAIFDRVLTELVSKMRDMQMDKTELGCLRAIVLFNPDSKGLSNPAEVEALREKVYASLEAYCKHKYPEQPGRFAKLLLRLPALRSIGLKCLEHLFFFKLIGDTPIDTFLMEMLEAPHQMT
# UniProt Q96RI1: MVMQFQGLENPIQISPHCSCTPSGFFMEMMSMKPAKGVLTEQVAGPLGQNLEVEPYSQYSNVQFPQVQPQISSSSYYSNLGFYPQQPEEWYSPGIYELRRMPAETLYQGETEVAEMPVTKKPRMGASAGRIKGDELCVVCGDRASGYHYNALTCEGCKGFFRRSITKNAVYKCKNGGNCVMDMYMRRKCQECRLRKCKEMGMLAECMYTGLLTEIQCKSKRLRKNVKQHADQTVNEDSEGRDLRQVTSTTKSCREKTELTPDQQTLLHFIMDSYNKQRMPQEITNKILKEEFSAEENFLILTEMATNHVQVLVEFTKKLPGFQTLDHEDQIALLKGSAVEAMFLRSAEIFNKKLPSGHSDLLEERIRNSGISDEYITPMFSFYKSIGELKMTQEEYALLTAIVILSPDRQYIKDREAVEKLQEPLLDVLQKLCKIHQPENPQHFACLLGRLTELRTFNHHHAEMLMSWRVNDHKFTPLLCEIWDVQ
# UniProt P11473: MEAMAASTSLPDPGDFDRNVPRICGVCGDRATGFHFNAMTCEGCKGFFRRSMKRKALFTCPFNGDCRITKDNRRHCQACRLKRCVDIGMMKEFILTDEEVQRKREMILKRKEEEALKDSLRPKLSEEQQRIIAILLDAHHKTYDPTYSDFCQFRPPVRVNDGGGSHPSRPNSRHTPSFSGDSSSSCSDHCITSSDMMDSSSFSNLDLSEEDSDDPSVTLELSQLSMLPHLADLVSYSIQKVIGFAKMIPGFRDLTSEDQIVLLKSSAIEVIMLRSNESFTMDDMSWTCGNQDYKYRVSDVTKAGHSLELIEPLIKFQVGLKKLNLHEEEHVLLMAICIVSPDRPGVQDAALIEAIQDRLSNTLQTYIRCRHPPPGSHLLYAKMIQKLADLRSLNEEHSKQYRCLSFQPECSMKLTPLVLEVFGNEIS
# UniProt P03372, whole entry, looked up: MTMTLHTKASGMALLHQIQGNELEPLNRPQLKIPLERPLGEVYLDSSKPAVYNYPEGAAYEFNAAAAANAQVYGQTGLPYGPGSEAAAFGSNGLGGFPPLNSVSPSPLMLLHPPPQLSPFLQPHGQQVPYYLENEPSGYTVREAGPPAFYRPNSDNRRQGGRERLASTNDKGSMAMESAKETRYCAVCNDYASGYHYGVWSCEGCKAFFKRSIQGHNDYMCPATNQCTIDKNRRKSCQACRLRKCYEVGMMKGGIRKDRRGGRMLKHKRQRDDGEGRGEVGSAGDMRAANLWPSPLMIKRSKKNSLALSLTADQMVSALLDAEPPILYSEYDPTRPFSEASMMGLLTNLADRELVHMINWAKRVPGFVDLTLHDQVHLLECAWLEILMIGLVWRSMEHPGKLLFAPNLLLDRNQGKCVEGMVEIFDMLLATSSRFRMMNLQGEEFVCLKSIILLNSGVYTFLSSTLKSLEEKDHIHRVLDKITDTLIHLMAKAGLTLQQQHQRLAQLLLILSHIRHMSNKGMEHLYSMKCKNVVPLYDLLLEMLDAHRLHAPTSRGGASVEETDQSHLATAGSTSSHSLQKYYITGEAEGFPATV
# UniProt P19785, whole entry, looked up: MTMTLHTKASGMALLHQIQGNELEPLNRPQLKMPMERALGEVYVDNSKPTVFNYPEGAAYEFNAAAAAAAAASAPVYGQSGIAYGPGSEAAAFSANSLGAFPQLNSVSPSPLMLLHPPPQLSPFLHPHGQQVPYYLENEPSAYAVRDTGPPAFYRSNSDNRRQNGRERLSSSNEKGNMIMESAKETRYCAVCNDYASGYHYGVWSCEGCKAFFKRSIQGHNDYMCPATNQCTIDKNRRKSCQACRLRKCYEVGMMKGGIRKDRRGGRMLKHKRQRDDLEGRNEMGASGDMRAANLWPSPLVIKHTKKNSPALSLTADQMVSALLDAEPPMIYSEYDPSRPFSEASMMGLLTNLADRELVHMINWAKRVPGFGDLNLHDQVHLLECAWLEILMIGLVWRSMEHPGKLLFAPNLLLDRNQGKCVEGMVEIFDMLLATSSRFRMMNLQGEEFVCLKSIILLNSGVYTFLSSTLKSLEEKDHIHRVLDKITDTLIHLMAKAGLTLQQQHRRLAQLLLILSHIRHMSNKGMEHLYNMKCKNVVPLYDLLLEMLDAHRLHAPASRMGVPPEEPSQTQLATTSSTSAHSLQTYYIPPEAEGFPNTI
# Several values for one entry are separate records, joined by “and”; a condition that tells them apart may be missing. Equal entries are not always repeated. The inconclusive results got no clear call from the source; some entries with a clear call stand among them for comparison. For some of these results: Potencies of inconclusive entries are doubtful fits and often do not repeat. Where a structure was tested more than once in an assay, its records may differ in their call. Activity calls are given as the source filed them. Rule for the calls: active = hit-call score of the fitted dose curve at least 0.9, where 1 is the maximum; inconclusive = response in the unintended direction; inactive = score below 0.9.
# Experiments:
# [1] = ATG_M_06_TRANS: Attagene TRANS-FACTORIAL HepG2 Assay for M06 Transcription Factor (Internal Marker) (AID 2282983); settings: HepG2 Attagene TRANS M06 internal marker reporter;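 note: reporter transcript level by RT-PCR then capillary electrophoresis fluorescence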
# Outline: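 Multi-reporter-transfected HepG2, 24 h treatment; reporter transcripts quantified via RT-PCR, primer-extension labelling and CE. DMSO-normalized gain-of-signal fit.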
# [2] = target: Nuclear receptor subfamily 1 group I member 2 (Homo sapiens) (UniProt O75469); assay: ATG_PXR_TRANS: Attagene TRANS-FACTORIAL HepG2 Assay for human Pregnane X Receptor (PXR) (AID 2283008)
# Outline: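 HepG2 transfected (FuGene 6) with GAL4-UAS reporter units + PXR-Gal4 chimera; dosed 24 h. Total RNA → oligo(dT) RT → PCR → 6-FAM primer extension → HpaI cut → CE. Gain-of-signal vs DMSO.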
# [3] = ATG_XTT_Cytotoxicity: Cytotoxicity Assessment in the Attagene TRANS-FACTORIAL HepG2 Assay (AID 2283584);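 for AC50: XTT signal for cell number as viability in transfected HepG2 cells; cells exposed to compound for 24 h before reading; active means loss of viability signal versus DMSO baseline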
# Outline: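 24 h chemical exposure of reporter-transfected HepG2; XTT signal loss vs DMSO indicates cytotoxicity.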
# [4] = target: Cellular tumor antigen p53 (Homo sapiens) (UniProt P04637); assay: TOX21_p53_BLA_p2_ratio: Tox21 HCT-116 p53 Agonism Beta-lactamase Assay, Ratio, Phase 2 (AID 2283592)
# Outline: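 DMSO-normalized, positive-direction endpoint derived from the 460 nm/530 nm FRET ratio in HCT116 p53 beta-lactamase reporter cells exposed 16 h at 37C and loaded with CCF4-AM for 2 h.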
# [5] = target: Cellular tumor antigen p53 (Homo sapiens) (UniProt P04637); assay: TOX21_p53_BLA_p5_ratio: Tox21 HCT-116 p53 Agonism Beta-lactamase Assay, Ratio, Phase 5 (AID 2283599)
# Outline: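 Beta-lactamase reporter ratio (blue 460 nm over green 530 nm, 405 nm excitation) after 2 h CCF4-AM loading, in HCT-116 cells exposed 16 h at 37 C to compounds pinned at 217-fold dilution. Increases relative to DMSO baseline scored.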
# [6] = TOX21_p53_BLA_p5_viability: Viability Assessment in the Tox21 HCT-116 p53 Agonism Beta-lactamase Assay, Phase 5 (AID 2283600)
# Outline: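 Here cell health was gauged by ATP levels in wells holding 4000 cells, each treated 16 h with DMSO-delivered compounds at 217-fold dilution; reduced luminescence marked toxicity.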
# [7] = target: Cellular tumor antigen p53 (Homo sapiens) (UniProt P04637); assay: TOX21_p53_BLA_p4_ratio: Tox21 HCT-116 p53 Agonism Beta-lactamase Assay, Ratio, Phase 4 (AID 2283601)
# Outline: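 Signal is the blue/green (460nm/530nm) ratio of cleaved versus uncleaved CCF4-AM substrate, read after 2 h substrate loading. Cells were HCT116 carrying the p53-responsive beta-lactamase reporter, dosed 16 h at 37C, 5% CO2; CellTiter-Glo measured in parallel.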
# [8] = ACEA_ER_AUC_viability: ACEA Biosciences xCELLigence Real-Time Cell Analysis on Estrogen Receptor Agonism for Viability (AID 2283782);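 note: hit means loss of impedance signal meaning reduced cell growth or viability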
# Outline: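 Viability endpoint: reduced impedance area under the curve relative to DMSO, recorded by real-time electrode sensing over ~80 h of continuous exposure. Duplicate plates of T47D in hormone-depleted medium; eight concentrations, 1:4 dilutions, 100 uM maximum.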
# [9] = ATG_M_32_TRANS: Attagene TRANS-FACTORIAL HepG2 Assay for M32 Transcription Factor (Internal Marker) (AID 2282984); settings: HepG2 Attagene TRANS M32 internal marker reporter;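 for outcome: transcript level of a background control reporter unit measured by RT-PCR and capillary electrophoresis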
# Outline: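 Cell-based TRANS-format assay in HepG2: exogenous chimeric GAL4 reporter units transiently expressed, compounds applied 24 h. Reporter mRNA detected by RT-PCR plus capillary electrophoresis; this readout is an internal background marker.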
# [10] = target: Retinoic acid receptor RXR-alpha (Homo sapiens) (UniProt P19793); assay: ATG_RXRa_TRANS: Attagene TRANS-FACTORIAL HepG2 Assay for human Retinoid X Receptor alpha (RXRa) (AID 2283012)
# Outline: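 Chimeric NR-GAL4 trans-activation in HepG2, 24 h treatment; reporter transcripts quantified by fluorescence on capillary electrophoresis, analysed for upward change from DMSO.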
# [11] = target: Cellular tumor antigen p53 (Homo sapiens) (UniProt P04637); assay: TOX21_p53_BLA_p3_ratio: Tox21 HCT-116 p53 Agonism Beta-lactamase Assay, Ratio, Phase 3 (AID 2283596)
# Outline: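 Cells were seeded at 4000/well, rested 5 h at 37C, then dosed with DMSO compound solutions (217-fold dilution) for 16 h. CCF4-AM substrate was loaded for 2 h at room temperature, and the 460/530 nm emission ratio was fitted for gain of signal versus DMSO.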
# [12] = target: Bile acid receptor (Homo sapiens) (UniProt Q96RI1); assay: ATG_FXR_TRANS: Attagene TRANS-FACTORIAL HepG2 Assay for Farnesoid X Receptor (FXR) (AID 2282979); settings: HepG2 Attagene TRANS FXR-GAL4 reporter transcription;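 note: hits raise reporter mRNA above DMSO so AC50 marks FXR activation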
# Outline: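 After 24 h chemical treatment of transfected HepG2 cells, GAL4-UAS reporter transcripts driven by an exogenous FXR-GAL4 fusion were measured by RT-PCR and capillary electrophoresis. Increases over DMSO were fitted.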
# [13] = target: human Vitamin D Receptor (VDR), VDR (gene 7421) (UniProt P11473); assay: ATG_VDR_TRANS: Attagene TRANS-FACTORIAL HepG2 Assay for human Vitamin D Receptor (VDR) (AID 2283022)
# Outline: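 Multiplexed TRANS reporter in HepG2; 24 h treatment; reporter mRNA by RT-PCR plus capillary electrophoresis; upregulation scored relative to DMSO.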
# [14] = target: Retinoic acid receptor RXR-alpha (Homo sapiens) (UniProt P19793); assay: OT_NURR1_NURR1RXRa_0480: Odyssey Thera (OT) 8-hour HEK293T Protein Complementation Assay for Nurr1/retinoid X receptor (RXR) (AID 2283385)
# Outline: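 Gain in fluorescent complementation signal over DMSO, measured 8 hours after chemical dosing of human kidney HEK293T cells, indicated enhanced Nurr1–RXRα association.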
# [15] = target: Retinoic acid receptor RXR-alpha (Homo sapiens) (UniProt P19793); assay: OT_NURR1_NURR1RXRa_1440: Odyssey Thera (OT) 24-hour HEK293T Protein Complementation Assay for Nurr1/retinoid X receptor (RXR) (AID 2283386)
# Outline: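 Cell-based binding reporter: HEK293T cells, 24 h exposure, fluorescence-detected fragment complementation, DMSO as baseline.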
# [16] = target: Estrogen receptor (Homo sapiens) (UniProt P03372); assay: NVS_NR_hER: NovaScreen (NVS) Nuclear Receptor Binding Assay for human Estrogen Receptor (ER) (AID 2283348)
# Outline: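 Cell-free MCF7-derived ER preparation, specific radioligand displaced by test compound, read by scintillation counting 18 h post-dosing. Duplicate single-point 25 uM screen, then concentration-response confirmation; DMSO baseline.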
# [17] = target: mouse Estrogen Receptor alpha (Era), Esr1 (gene 13982) (UniProt P19785); assay: NVS_NR_mERa: NovaScreen (NVS) Nuclear Receptor Binding Assay for mouse Estrogen Receptor alpha (Era) (AID 2283378);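 note: hit means loss of bound radioligand signal relative to DMSO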
# Outline: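 Measurements come from scintillation counting after filtration, taken 18 hours after chemicals were added to a cell-free mouse Era preparation with radioligand. Screening was duplicate at 25 uM, with concurrent positive and negative controls and confirmatory concentration series for actives.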
smiles,measurement,setting,value
CC(C)Cc1ccccc1,outcome,[1],inactive
same,outcome,[2],inactive
same,outcome,[3],inactive
same,AC50,[4],inconclusive: 45.5 µM
same,outcome,[4],inactive
same,AC50,[5],inconclusive: 45.5 µM
same,AC50,[6],inconclusive: 46.1 µM
same,AC50,[7],inconclusive: 46.1 µM
same,AC50,[8],inconclusive: 0.0441 µM
CC(=O)Nc1ccc2c(c1)Cc1cc(NC(C)=O)ccc1-2,AC50,[9],inconclusive: 0.367 µM
same,AC50,[10],inconclusive: 100 µM
same,AC50,[4],inconclusive: 46.1 µM
same,outcome,[4],inactive
same,AC50,[11],inconclusive: 46.1 µM
same,outcome,[11],inactive
same,AC50,[5],inconclusive: 46 µM
same,AC50,[6],inconclusive: 46.1 µM and inconclusive: 46 µM
same,AC50,[7],inconclusive: 46.1 µM and inconclusive: 46 µM
c1ccc(CCCc2ccncc2)cc1,outcome,[12],inactive
same,outcome,[2],inactive
same,outcome,[3],inactive
same,AC50,[5],inconclusive: 86.1 µM
CC1(C)C(=O)N(CO)C(=O)N1CO,outcome,[13],inactive
C=CC(C)(O)CC/C=C(\C)CC (stereo unspecified),outcome,[3],inactive
same,AC50,[4],inconclusive: 46.1 µM
same,AC50,[6],inconclusive: 46.1 µM
same,AC50,[7],inconclusive: 46.1 µM
Clc1cccnc1,outcome,[9],inactive
same,AC50,[2],inconclusive: 100 µM
same,AC50,[13],inconclusive: 100 µM
same,AC50,[3],inconclusive: 100 µM
same,outcome,[8],inactive
CCCCC/C=C\C/C=C\CCCCCCCC(=O)O,AC50,[16],active: 25 µM
same,AC50,[17],active: 35.8 µM
same,outcome,[14],inactive
same,AC50,[15],inconclusive: 50 µM
same,AC50,[4],active: 72.9 µM
same,AC50,[11],active: 72 µM
same,AC50,[5],active: 86.3 µM
same,AC50,[6],active: 80.5 µM and inconclusive: 5.79 µM
same,outcome,[6],inactive
same,AC50,[7],inconclusive: 46.1 µM

# Looked up one by one from above (two):
smiles,measurement,setting,value
CC(C)Cc1ccccc1,outcome,[2],inactive
same,AC50,[7],inconclusive: 46.1 µM
